Measurements taken from patent US20110301095A1 (SANFORD BURNHAM MEDICAL RESEARCH INSTITUTE CALIFORNIA, published 2011).
No constants are given. Whether binding was seen depends on the method and setting. Binding seen in cells or lysates may run through a third protein. Binding calls can cover weak binding; strength is not graded here. Sequences can lack the tags named with a protein.

Target: Flag-HIF-1α translated in vitro
Assay: in vitro pull-down: 35S-labelled HIF-1α on nickel beads coated with His-FoxA2, phosphor-imager (FIG. 3H)

B1: His-FoxA2 (mouse FoxA2 in pET15b, His-tagged fusion protein purified from bacteria) (protein, UniProt P35583 1-459, looked up, not shown: small tags and cut ends)
chain: MLGAVKMEGHEPSDWSSYYAEPEGYSSVSNMNAGLGMNGMNTYMSMSAAAMGGGSGNMSAGSMNMSSYVGAGMSPSLAGMSPGAGAMAGMSGSAGAAGVAGMGPHLSPSLSPLGGQAAGAMGGLAPYANMNSMSPMYGQAGLSRARDPKTYRRSYTHAKPPYSYISLITMAIQQSPNKMLTLSEIYQWIMDLFPFYRQNQQRWQNSIRHSLSFNDCFLKVPRSPDKPGKGSFWTLHPDSGNMFENGCYLRRQKRFKCEKQLALKEAAGAASSGGKKTAPGSQASQAQLGEAAGSASETPAGTESPHSSASPCQEHKRGGLSELKGAPASALSPPEPAPSPGQQQQAAAHLLGPPHHPGLPPEAHLKPEHHYAFNHPFSINNLMSSEQQHHHSHHHHQPHKMDLKAYEQVMHYPGGYGSPMPGSLAMGPVTNKAGLDASPLAADTSYYQGVYSRPIMNSS
binding: binds
